Experimental data: PubChem BioAssay AID1487 (National Center for Advancing Translational Sciences (NCATS), 2009)
The list shows a part of the results. These are further read-outs of the screen, such as a control signal, another cell line or another target. No call is given for them. The list favours compounds with an active or inconclusive main result. Words in brackets tell the shape of the fitted curve; partial curves, single points and poor fits give uncertain potencies.

Assay: qHTS Assay for Modulators of Lamin A Splicing
Details: HeLa LMNA splicing GFP/RFP minigene ratio, 48 h
In short: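 S3 HeLa stable clones carrying a lamin A-EGFP splicing minigene plus DsRed2 were seeded at 600 cells/well in Opti-MEM with 2% FBS, pin-dosed and incubated 48 h at 37°C. Acumen cytometry (488 nm) gave the GFP/RFP total-intensity ratio.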

[1] = measured here: GFP splicing reporter channel
[2] = measured here: RFP viability control channel

SMILES	AC50 [1]	AC50 [2]
Cc1nc(NCC2CCCO2)c2nnn(Cc3ccccc3)c2n1 (stereo unspecified)	14.1 µM [rising, partial curve]	22.4 µM [rising, single point]
COc1cc2c(cc1OC)CN(c1ccc([N+](=O)[O-])cc1C#N)CC2		11.2 µM [rising, partial curve]
CCN(CC)C(=O)c1cc2c(=O)n3cccc(C)c3nc2n1C		8.91 µM [rising, partial curve, poor fit]
CCOC(=O)c1sc(Nc2ccc(F)cc2)nc1C		0.398 µM [falling, full curve, poor fit]
Cc1nc2ccccn2c1C(=O)/C=C/c1cccc([N+](=O)[O-])c1	5.62 µM [falling, partial curve]	
Cc1ccc(Nc2nc3nonc3[nH]c2=O)cc1C		35.5 µM [rising, single point]
NC(N)=N/N=C/c1ccc(OCc2ccccc2)cc1	7.94 µM [rising, partial curve, poor fit]	12.6 µM [rising, partial curve]
Cc1ccc(CNC(=O)c2cc(Sc3ccc(F)cc3F)nc3ccccc23)cc1	6.31 µM [rising, partial curve, poor fit]	1 µM [rising, full curve, poor fit]
C=CCn1c(SCC(C)=O)nnc1-c1cc(-c2ccccc2)sc1N		35.5 µM [rising, single point]
COC(=O)C1=C(C)N(Cc2ccc(C)cc2)C(=O)/C1=C\c1cc(OC)c(OC)c(OC)c1	35.5 µM [falling, single point]	11.2 µM [falling, single point]
COc1ccc(CNC(=O)CCc2c(C)nn(-c3ccc(N4CCOCC4)nn3)c2C)cc1		0.02 µM [falling, full curve, poor fit]
CCOC(=O)c1ccc(CN(Cc2ccc(F)cc2)S(=O)(=O)c2cc(C(=O)Nc3ccccc3CC)ccc2F)cc1		35.5 µM [rising, single point]
FC(F)(F)c1ccccc1-c1nc(-n2ccnc2)c2ccccc2n1	15.8 µM [falling, partial curve]	15.8 µM [falling, single point]
Cc1ccc2ccc3cc(C(=O)Nc4ccc(C)c(F)c4)nc3c2[nH]1	35.5 µM [falling, single point]	35.5 µM [falling, single point]
CC1=C([N+](=O)[O-])C(c2cccc(Br)c2)C2=C(N1)c1ccccc1C2=O (stereo unspecified)	20 µM [falling, single point]	2 µM [rising, partial curve]
COc1ccc(C(=O)N2CCc3cc(OC)c(OC)cc3C2c2cccc([N+](=O)[O-])c2)cc1 (stereo unspecified)		12.6 µM [rising, partial curve]
COC(=O)CCCNC(=O)c1ccc(OC2CCN(CCc3ccccc3)CC2)cc1	0.00891 µM [falling, full curve, poor fit]	0.112 µM [falling, partial curve, poor fit]
O=C(/C=C/c1ccco1)NC1=NCCS1	35.5 µM [falling, single point]	

SMILES	AC50 [1]	AC50 [2]
CCOC(=O)c1nnn(-c2nc(N(C)C)nc(N(C)C)n2)c1C	6.31 µM [rising, partial curve, poor fit]	
C=CCNC(=O)CN(c1cc(Cl)ccc1OC)S(=O)(=O)c1ccc(C)c([N+](=O)[O-])c1	0.126 µM [rising, full curve, poor fit]	
CCCCCCC(=O)Cc1cc(OC)c(OC)cc1C=C(C(=O)OCC)C(=O)OCC		8.91 µM [rising, partial curve, poor fit]
CCOC(=O)N1CCc2c(sc(NC(=O)c3ccc(Cl)s3)c2C(N)=O)C1		12.6 µM [rising, partial curve]
O=C(C1CC1)N1CCc2cc(Br)cc(S(=O)(=O)NCc3ccc4c(c3)OCO4)c21		0.708 µM [rising, partial curve]
CCc1ccc(-c2cc(C(F)(F)F)n3nc(C(=O)Nc4cnn(Cc5ccc(C)cc5)c4)cc3n2)s1	25.1 µM [falling, single point]	11.2 µM [falling, partial curve]
CCOc1ccc(-n2c(SCC(=O)c3ccccc3)nc3c([nH]c4ccccc43)c2=O)cc1		1.26 µM [falling, full curve, poor fit]
CS(=O)(=O)N1CCN(c2ccccc2NC(=O)c2ccc([N+](=O)[O-])o2)CC1	7.94 µM [falling, partial curve]	14.1 µM [falling, partial curve]
C#CC[N+](C)(C)CC#Cc1ccc(Cl)cc1	14.1 µM [falling, single point]	14.1 µM [falling, single point]
CC(c1nnc(SCC(=O)Nc2cccnc2Cl)n1-c1ccccc1)N(C)C (stereo unspecified)		14.1 µM [falling, partial curve, poor fit]
Cc1ccc(C2=NN=C(NC(=O)C(F)(F)F)SC2)cc1	2 µM [falling, single point]	
CN(C)S(=O)(=O)N1CCN(CC(O)COc2ccc(C(=O)c3ccccc3)cc2)CC1 (stereo unspecified)		31.6 µM [rising, single point]
Cc1ccc(C(c2nnnn2C2CCCC2)N2c3ccccc3CC2C)cc1 (stereo unspecified)		14.1 µM [rising, partial curve]
COc1cc(/C=C2/C(=O)ON=C2c2ccccc2)ccc1O		15.8 µM [rising, partial curve]
CCn1c(=O)n(CC2CCC(C(=O)NC(C)C)CC2)c(=O)c2sccc21 (stereo unspecified)	0.01 µM [falling, full curve]	
O=c1cc(-c2ccccc2)[nH]n1-c1nc2ccccc2s1		31.6 µM [rising, single point]
O=C(CN1C(=O)NC2(CCc3ccccc3C2)C1=O)Nc1ccc(F)cc1 (stereo unspecified)		22.4 µM [rising, single point]

2 entries from above in a different format:
SMILES | AC50 [1] | AC50 [2]
CCOC(=O)c1nnn(-c2nc(N(C)C)nc(N(C)C)n2)c1C | 6.31 µM [rising, partial curve, poor fit] | 
CC(c1nnc(SCC(=O)Nc2cccnc2Cl)n1-c1ccccc1)N(C)C (stereo unspecified) |  | 14.1 µM [falling, partial curve, poor fit]
